Experimental data taken from the supplement of paper PMC10849652.
Some of the results follow.

Sequences of proteins named here, by UniProt entry; tags and fusion partners are left off. A change or cut given only in a name is not applied to a line headed by its entry.
UniProt P07919: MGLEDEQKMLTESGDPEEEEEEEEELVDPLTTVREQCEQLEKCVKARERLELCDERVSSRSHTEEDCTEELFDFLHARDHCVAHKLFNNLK
UniProt O94874: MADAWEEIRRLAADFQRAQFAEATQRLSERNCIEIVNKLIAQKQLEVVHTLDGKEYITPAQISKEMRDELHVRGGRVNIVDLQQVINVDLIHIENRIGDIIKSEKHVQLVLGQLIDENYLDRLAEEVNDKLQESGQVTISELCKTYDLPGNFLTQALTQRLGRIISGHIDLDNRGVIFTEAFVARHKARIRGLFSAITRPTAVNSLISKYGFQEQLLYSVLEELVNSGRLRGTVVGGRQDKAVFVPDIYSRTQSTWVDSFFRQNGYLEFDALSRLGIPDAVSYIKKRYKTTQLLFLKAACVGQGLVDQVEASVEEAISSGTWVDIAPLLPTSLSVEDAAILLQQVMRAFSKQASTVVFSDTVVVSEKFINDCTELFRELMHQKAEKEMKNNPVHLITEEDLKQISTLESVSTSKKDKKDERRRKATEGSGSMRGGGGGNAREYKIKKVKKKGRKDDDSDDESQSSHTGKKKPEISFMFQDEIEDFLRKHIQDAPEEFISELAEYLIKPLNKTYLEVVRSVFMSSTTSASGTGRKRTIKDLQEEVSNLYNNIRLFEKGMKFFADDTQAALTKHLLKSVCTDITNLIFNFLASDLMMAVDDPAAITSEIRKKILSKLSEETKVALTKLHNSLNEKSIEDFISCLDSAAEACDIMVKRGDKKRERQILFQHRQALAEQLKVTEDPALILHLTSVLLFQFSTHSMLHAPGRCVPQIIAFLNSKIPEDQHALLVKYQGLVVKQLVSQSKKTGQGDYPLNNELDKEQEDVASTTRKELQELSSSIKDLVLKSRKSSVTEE
UniProt Q9H3U1: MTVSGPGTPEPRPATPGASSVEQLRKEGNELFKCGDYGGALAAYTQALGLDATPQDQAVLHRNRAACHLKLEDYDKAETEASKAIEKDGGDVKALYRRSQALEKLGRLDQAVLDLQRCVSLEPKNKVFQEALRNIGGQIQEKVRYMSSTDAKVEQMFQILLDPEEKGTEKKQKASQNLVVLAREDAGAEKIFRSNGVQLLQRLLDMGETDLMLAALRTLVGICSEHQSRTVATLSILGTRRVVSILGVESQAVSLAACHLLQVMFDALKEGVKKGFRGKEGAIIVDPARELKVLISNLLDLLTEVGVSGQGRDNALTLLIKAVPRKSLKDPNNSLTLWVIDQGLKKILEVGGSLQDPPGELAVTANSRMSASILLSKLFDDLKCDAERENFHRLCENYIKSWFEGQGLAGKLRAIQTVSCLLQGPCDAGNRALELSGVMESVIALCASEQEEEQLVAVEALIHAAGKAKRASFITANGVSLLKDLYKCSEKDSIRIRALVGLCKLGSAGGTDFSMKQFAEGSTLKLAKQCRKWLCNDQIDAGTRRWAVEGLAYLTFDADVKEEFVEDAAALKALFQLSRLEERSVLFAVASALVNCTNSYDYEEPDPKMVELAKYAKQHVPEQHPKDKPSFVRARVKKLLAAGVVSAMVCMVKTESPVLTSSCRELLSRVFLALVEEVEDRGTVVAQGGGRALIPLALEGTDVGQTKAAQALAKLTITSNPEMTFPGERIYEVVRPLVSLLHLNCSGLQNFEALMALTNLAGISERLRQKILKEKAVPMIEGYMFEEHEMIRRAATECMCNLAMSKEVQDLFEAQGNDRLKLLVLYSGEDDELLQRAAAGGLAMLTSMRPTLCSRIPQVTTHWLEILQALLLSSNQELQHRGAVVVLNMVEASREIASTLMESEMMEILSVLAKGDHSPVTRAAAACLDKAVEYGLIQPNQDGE
UniProt P06132: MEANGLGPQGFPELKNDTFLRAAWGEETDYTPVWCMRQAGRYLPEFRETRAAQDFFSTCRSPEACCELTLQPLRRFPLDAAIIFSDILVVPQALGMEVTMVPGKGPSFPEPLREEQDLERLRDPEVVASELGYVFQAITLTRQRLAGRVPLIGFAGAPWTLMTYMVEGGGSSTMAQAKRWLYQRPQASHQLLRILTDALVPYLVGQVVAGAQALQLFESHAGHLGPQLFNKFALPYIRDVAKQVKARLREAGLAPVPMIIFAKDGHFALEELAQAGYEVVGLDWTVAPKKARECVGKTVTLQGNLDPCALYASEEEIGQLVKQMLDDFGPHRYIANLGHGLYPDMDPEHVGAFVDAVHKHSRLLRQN
UniProt O75379: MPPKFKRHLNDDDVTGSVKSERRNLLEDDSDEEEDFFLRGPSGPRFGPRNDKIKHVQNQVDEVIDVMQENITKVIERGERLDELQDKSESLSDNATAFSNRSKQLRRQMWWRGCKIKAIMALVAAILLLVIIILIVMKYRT
UniProt Q9UPU5: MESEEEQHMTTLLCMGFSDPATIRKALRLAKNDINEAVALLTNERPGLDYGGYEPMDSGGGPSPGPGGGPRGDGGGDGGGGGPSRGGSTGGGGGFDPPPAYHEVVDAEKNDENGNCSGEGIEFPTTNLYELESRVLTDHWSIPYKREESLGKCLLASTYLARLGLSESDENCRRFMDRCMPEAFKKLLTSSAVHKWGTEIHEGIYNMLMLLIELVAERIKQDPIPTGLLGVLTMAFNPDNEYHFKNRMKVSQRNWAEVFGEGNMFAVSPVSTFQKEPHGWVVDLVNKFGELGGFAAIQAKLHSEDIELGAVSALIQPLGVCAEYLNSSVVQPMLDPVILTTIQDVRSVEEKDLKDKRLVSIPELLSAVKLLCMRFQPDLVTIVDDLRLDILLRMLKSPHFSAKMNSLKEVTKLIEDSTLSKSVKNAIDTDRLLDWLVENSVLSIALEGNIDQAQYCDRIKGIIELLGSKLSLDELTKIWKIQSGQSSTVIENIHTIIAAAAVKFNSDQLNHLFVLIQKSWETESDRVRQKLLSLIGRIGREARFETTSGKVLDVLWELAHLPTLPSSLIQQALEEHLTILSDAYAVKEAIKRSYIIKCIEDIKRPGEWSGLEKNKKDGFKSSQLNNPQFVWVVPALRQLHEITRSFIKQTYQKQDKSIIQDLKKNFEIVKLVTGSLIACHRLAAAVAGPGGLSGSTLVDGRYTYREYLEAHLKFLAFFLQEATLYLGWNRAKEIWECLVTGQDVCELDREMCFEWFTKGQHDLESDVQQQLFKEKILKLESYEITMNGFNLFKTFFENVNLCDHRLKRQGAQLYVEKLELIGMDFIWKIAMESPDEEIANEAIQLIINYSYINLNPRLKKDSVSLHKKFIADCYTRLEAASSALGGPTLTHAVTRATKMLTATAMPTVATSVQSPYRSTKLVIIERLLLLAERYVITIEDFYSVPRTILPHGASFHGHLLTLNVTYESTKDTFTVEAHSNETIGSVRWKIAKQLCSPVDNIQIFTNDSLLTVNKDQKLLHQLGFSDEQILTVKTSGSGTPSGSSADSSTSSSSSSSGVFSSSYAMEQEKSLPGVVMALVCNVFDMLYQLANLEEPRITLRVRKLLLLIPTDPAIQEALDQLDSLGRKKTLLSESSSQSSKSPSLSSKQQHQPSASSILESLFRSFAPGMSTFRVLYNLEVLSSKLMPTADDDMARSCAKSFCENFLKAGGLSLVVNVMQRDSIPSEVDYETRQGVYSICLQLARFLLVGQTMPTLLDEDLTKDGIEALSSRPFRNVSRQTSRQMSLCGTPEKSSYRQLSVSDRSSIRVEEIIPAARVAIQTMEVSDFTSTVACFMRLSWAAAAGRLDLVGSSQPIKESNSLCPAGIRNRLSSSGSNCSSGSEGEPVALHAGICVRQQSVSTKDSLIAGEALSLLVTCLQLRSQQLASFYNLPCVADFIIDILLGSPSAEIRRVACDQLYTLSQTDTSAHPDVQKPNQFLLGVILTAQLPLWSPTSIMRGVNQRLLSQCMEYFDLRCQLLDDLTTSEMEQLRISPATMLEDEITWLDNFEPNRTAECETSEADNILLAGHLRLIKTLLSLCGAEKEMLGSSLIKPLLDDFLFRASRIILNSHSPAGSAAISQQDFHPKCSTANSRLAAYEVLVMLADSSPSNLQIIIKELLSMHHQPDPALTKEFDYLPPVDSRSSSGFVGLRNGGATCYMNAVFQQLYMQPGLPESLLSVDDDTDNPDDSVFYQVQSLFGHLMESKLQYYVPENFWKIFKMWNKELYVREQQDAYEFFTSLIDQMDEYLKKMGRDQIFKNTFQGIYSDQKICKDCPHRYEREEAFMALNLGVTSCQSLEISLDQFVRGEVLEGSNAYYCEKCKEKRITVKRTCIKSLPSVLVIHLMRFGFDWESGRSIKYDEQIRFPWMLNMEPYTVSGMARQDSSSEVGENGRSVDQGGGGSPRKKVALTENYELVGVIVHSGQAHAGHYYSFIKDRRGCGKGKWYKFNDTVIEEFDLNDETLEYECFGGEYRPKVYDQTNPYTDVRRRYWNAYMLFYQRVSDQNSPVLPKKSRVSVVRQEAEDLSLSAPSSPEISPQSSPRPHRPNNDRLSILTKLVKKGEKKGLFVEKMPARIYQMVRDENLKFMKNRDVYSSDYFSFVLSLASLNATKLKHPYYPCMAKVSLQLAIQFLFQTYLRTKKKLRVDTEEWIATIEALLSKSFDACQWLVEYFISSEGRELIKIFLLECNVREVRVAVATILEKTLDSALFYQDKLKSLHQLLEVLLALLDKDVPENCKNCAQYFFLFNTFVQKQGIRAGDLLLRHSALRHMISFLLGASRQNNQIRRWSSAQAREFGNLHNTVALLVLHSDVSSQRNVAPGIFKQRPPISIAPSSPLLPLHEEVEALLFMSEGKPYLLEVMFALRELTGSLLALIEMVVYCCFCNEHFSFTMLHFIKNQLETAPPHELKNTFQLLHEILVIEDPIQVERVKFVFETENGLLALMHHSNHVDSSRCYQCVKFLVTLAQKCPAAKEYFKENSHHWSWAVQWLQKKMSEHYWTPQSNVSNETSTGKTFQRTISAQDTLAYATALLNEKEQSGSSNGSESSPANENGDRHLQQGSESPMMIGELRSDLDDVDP
UniProt Q92995: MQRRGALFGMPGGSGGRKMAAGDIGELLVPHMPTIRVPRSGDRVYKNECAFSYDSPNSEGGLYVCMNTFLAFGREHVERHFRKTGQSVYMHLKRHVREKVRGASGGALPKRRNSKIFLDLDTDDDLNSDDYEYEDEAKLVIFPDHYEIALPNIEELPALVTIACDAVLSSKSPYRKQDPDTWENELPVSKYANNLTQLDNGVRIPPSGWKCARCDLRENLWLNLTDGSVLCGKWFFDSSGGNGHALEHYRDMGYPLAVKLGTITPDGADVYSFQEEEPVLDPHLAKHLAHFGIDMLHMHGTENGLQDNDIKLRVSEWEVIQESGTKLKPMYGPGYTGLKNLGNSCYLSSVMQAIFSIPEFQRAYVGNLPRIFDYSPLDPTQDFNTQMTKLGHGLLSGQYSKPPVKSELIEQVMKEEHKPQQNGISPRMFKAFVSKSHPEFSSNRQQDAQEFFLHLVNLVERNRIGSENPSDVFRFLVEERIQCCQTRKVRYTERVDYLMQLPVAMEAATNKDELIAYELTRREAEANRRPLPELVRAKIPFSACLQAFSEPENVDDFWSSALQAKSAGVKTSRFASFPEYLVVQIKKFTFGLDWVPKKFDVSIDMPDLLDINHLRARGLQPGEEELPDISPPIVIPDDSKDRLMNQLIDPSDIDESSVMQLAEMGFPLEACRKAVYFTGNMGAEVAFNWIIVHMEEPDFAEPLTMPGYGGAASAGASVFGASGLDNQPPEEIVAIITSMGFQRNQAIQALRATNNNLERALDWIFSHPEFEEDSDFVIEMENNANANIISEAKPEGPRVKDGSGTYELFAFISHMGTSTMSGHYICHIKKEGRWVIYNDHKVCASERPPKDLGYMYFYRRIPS
UniProt P08670, whole entry, looked up: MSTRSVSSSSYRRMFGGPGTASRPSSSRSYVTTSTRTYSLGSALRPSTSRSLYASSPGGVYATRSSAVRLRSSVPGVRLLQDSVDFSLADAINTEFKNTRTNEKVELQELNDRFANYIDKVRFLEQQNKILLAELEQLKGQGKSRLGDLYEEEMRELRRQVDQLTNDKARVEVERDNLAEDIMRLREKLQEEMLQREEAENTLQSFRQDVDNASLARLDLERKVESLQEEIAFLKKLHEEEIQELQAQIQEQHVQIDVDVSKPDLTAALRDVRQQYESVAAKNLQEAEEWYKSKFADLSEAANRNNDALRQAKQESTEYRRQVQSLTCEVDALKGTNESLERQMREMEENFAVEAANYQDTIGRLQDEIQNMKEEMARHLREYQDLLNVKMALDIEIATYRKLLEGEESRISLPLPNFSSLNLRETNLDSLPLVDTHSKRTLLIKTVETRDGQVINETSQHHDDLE
UniProt P61960, whole entry, looked up: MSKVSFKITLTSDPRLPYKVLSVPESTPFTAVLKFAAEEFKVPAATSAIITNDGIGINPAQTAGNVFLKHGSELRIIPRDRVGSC
UniProt Q9Y3C8: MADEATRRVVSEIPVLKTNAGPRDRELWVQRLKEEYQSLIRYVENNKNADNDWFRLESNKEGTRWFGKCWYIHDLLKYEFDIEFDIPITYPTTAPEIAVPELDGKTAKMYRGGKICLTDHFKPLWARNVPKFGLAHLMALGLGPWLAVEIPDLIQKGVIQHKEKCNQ

How the values were obtained:
Assay in all cases: log2 fold change, soluble protein after heating vs DMSO (PISA); higher = thermal stabilisation; K562 lysate, 10 uM; active = over 0.2 and 3.5 SD of the protein, either way, in both replicates (recomputed)
ibrutinib = compound: C=CC(=O)N1CCC[C@@H](n2nc(-c3ccc(Oc4ccccc4)cc3)c3c(N)ncnc32)C1 [ibrutinib]
Outline: (§1)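 Thermal stability, expressed as log-two fold change relative to solvent controls, is given from duplicates. Crude K562 extract in PBS pH 7.4 with 1 mM MgCl2, at 1 mg/mL protein, was treated with 10 μM compound for 30 min and heated in aliquots for 3 min across 48°C-58°C. After pooling, adjustment to 0.5% NP-40 at 4°C and centrifugation at 21,000xg for 90 min, supernatant protein was measured by TMTpro 16plex LC-MS/MS with channel sums equalised.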

[1] = compound: CC(=O)c1cnc2ccc(-c3cc(Cl)c(O)c(Cl)c3)nc2c1N[C@H]1CC[C@H](CN(C)C)CC1
Outline: as §1

ralimetinib = compound: CC(C)(C)Cn1c(N)nc2ccc(-c3[nH]c(C(C)(C)C)nc3-c3ccc(F)cc3)nc21 [ralimetinib]
Outline: as §1

[2] = compound: CC(C)(O)CC(=O)NCCn1ccc2ncnc(Nc3ccc(Oc4cccc(C(F)(F)F)c4)c(Cl)c3)c21
Outline: as §1

[3] = compound: CC(C)C1=C2N=C(C=C(N2N=C1)NCC3=CC=CC=C3)NCCCCCCN
Outline: as §1

[4] = compound: CC1=C(C(CC(=O)N1)C2=CC=C(C=C2)C(F)(F)F)C(=O)NC3=C(C=C4C(=C3)C=NN4)F
Outline: as §1

[5] = compound: CC1=C(C2=C(C=C1)C(=O)C3=CC=CC=C3N2CCCN)C
Outline: as §1

[6] = compound: CC1=C(C=C(C=C1)NC(=O)C2=CC(=CC=C2)C(C)(C)C#N)NC3=CC4=C(C=C3)N=CN(C4=O)C
Outline: as §1

[7] = compound: CC1=C(C=C(C=C1)NC(=O)C2=CC(=CC=C2)N(C)C)NC(=O)C3=CC=C(C=C3)O
Outline: as §1

[8] = compound: CC1=CC=C(C=C1)SC2=C3C=C(SC3=CN=C2)C(=O)N
Outline: as §1

vemurafenib = compound: CCCS(=O)(=O)Nc1ccc(F)c(C(=O)c2c[nH]c3ncc(-c4ccc(Cl)cc4)cc23)c1F [vemurafenib]
Outline: as §1

[9] = compound: CCCS(=O)(=O)Nc1ccc(F)c(C(=O)c2c[nH]c3ncc(Cl)cc23)c1F
Outline: as §1

barasertib = compound: CCN(CCCOc1ccc2c(Nc3cc(CC(=O)Nc4cccc(F)c4)[nH]n3)ncnc2c1)CCOP(=O)(O)O [barasertib]
Outline: as §1

[10] = compound: CC[C@@H]1C(=O)N(C)c2cnc(Nc3ccc(C(=O)NC4CCN(C)CC4)cc3OC)nc2N1C1CCCC1
Outline: as §1

volasertib = compound: CC[C@@H]1C(=O)N(C)c2cnc(Nc3ccc(C(=O)N[C@H]4CC[C@H](N5CCN(CC6CC6)CC5)CC4)cc3OC)nc2N1C(C)C [volasertib]
Outline: as §1

[11] = compound: CCn1c(C(=O)N(C2CC2)C2CC2)cc2c3c(ncn3C)c(Nc3cc(C)n(C)n3)nc21
Outline: as §1

[12] = compound: CCn1cc(-c2ccnc3[nH]c(-c4cccc(CN(C)C)c4)cc23)c(-c2ccc(NC(=O)N(C)C)cc2)n1
Outline: as §1

[13] = compound: CN1CCC(CNc2ccc3ncc(-c4cccc(OC(F)(F)F)c4)n3n2)CC1
Outline: as §1

saracatinib = compound: CN1CCN(CCOc2cc(OC3CCOCC3)c3c(Nc4c(Cl)ccc5c4OCO5)ncnc3c2)CC1 [saracatinib]
Outline: as §1

sotrastaurin = compound: CN1CCN(c2nc(C3=C(c4c[nH]c5ccccc45)C(=O)NC3=O)c3ccccc3n2)CC1 [sotrastaurin]
Outline: as §1

Measured: log2 fold change

URI1 (UniProt O94763)
inactive: ibrutinib 0.057 | [1] 0.012 | ralimetinib 0.022 | [2] 0.019 | [3] -0.045 | [4] 0.002 | [5] -0.001 | [6] 0 | [7] -0.028 | [8] -0.003 | vemurafenib 0.051 | [9] 0.015 | barasertib -0.005 | [10] 0.048 | volasertib 0.002 | [11] 0.018 | [12] 0.061 | [13] 0 | saracatinib 0.022 | sotrastaurin -0.007

UQCRH (UniProt P07919)
inactive: ibrutinib 0.08 | [1] -0.014 | ralimetinib 0.081 | [2] 0.019 | [3] -0.053 | [4] 0.011 | [5] 0.047 | [6] 0.01 | [7] -0.003 | [8] -0.01 | vemurafenib 0.009 | [9] -0.002 | barasertib 0.124 | [10] 0.031 | volasertib 0.05 | [11] 0.059 | [12] -0.056 | [13] 0.037 | saracatinib -0.018 | sotrastaurin 0.025

UFL1 (UniProt O94874)
inactive: ibrutinib -0.033 | [1] 0.011 | ralimetinib -0.015 | [2] -0.002 | [3] -0.035 | [4] -0.007 | [5] 0.053 | [6] -0.016 | [7] 0.039 | [8] -0.042 | vemurafenib -0.017 | [9] 0.009 | barasertib 0.022 | [10] -0.001 | volasertib -0.026 | [11] 0.032 | [12] -0.158 | [13] -0.017 | saracatinib 0.003 | sotrastaurin 0.012

USP47 isoform 4 (UniProt Q96K76)
inactive: ibrutinib 0.014 | [1] 0.009 | ralimetinib 0.017 | [2] 0.016 | [3] -0.01 | [4] -0.006 | [5] -0.025 | [6] -0.001 | [7] 0.002 | [8] 0.005 | vemurafenib -0.02 | [9] 0.014 | barasertib 0.006 | [10] -0.049 | volasertib -0.016 | [11] 0.022 | [12] 0.022 | [13] -0.032 | saracatinib -0.005 | sotrastaurin 0.012

UNC45A (UniProt Q9H3U1)
inactive: ibrutinib 0.002 | [1] -0.008 | ralimetinib 0.03 | [2] -0.012 | [3] -0.009 | [4] -0.007 | [5] 0.002 | [6] 0.004 | [7] 0.002 | [8] -0.007 | vemurafenib 0.013 | [9] 0.012 | barasertib 0.018 | [10] -0.022 | volasertib -0.039 | [11] 0.025 | [12] 0.02 | [13] -0.081 | saracatinib 0.017 | sotrastaurin -0.001

UROD (UniProt P06132)
inactive: ibrutinib 0.028 | [1] 0 | ralimetinib 0.023 | [2] 0.016 | [3] -0.034 | [4] -0.037 | [5] 0.011 | [6] 0.02 | [7] -0.022 | [8] -0.024 | vemurafenib 0.021 | [9] 0.03 | barasertib -0.04 | [10] 0.014 | volasertib 0.012 | [11] 0.007 | [12] -0.019 | [13] 0.029 | saracatinib -0.016 | sotrastaurin -0.026

UPF3B (UniProt Q9BZI7)
active: [12] -0.231
inactive: ibrutinib -0.011 | [1] 0.024 | ralimetinib 0.007 | [2] -0.006 | [3] -0.021 | [4] 0.018 | [5] -0.04 | [6] 0.008 | [7] -0.001 | [8] -0.003 | vemurafenib 0.027 | [9] 0.01 | barasertib -0.006 | [10] 0.026 | volasertib 0.004 | [11] -0.019 | [13] 0.031 | saracatinib 0.005 | sotrastaurin -0.019

USP3 (UniProt Q9Y6I4)
inactive: ibrutinib 0.01 | [1] 0.048 | ralimetinib 0.042 | [2] -0.027 | [3] 0.014 | [4] 0.024 | [5] 0.011 | [6] -0.014 | [7] 0.016 | [8] -0.025 | vemurafenib 0.041 | [9] -0.007 | barasertib 0.008 | [10] 0.023 | volasertib -0.012 | [11] -0.011 | [12] 0.064 | [13] -0.041 | saracatinib 0.011 | sotrastaurin 0.011

VAMP4 (UniProt O75379)
inactive: ibrutinib -0.053 | [1] 0.011 | ralimetinib 0.047 | [2] 0.016 | [3] -0.011 | [4] 0.166 | [5] -0.005 | [6] 0.063 | [7] -0.042 | [8] 0.038 | vemurafenib -0.026 | [9] 0.005 | barasertib 0.052 | [10] 0.022 | volasertib 0.004 | [11] 0.028 | [12] -0.031 | [13] 0.105 | saracatinib -0.004 | sotrastaurin -0.048

USP24 (UniProt Q9UPU5)
inactive: ibrutinib -0.01 | [1] 0.009 | ralimetinib 0.02 | [2] -0.002 | [3] -0.031 | [4] 0.013 | [5] 0.029 | [6] -0.008 | [7] 0.009 | [8] 0.016 | vemurafenib 0.003 | [9] 0.026 | barasertib 0.027 | [10] -0.081 | volasertib -0.05 | [11] 0.065 | [12] 0.032 | [13] -0.031 | saracatinib 0.026 | sotrastaurin 0.007

USP13 (UniProt Q92995)
inactive: ibrutinib 0 | [1] -0.044 | ralimetinib -0.038 | [2] -0.028 | [3] 0.007 | [4] 0.007 | [5] -0.011 | [6] 0.006 | [7] -0.027 | [8] -0.012 | vemurafenib -0.025 | [9] -0.023 | barasertib -0.004 | [10] 0.024 | volasertib 0.018 | [11] -0.003 | [12] 0.006 | [13] 0.047 | saracatinib 0.021 | sotrastaurin -0.023

VIM (UniProt P08670)
inactive: ibrutinib 0.006 | [1] 0.004 | ralimetinib 0.004 | [2] 0.005 | [3] -0.003 | [4] -0.007 | [5] 0.032 | [6] -0.02 | [7] -0.007 | [8] -0.012 | vemurafenib -0.019 | [9] -0.009 | barasertib 0.032 | [10] -0.044 | volasertib 0.006 | [11] 0.021 | [12] 0.025 | [13] -0.032 | saracatinib 0.01 | sotrastaurin 0.008

UFM1 (UniProt P61960)
inactive: ibrutinib 0.059 | [1] 0.072 | ralimetinib 0.008 | [2] -0.014 | [3] -0.003 | [4] -0.04 | [5] -0.007 | [6] -0.097 | [7] -0.038 | [8] 0.109 | vemurafenib -0.249 | [9] -0.035 | barasertib 0.039 | [10] 0.044 | volasertib 0.047 | [11] 0.014 | [12] 0.491 | [13] -0.338 | saracatinib 0.016 | sotrastaurin 0.028

UQCRC2 (UniProt P22695)
inactive: ibrutinib -0.022 | [1] 0.001 | ralimetinib 0.005 | [2] -0.04 | [3] -0.005 | [4] -0.001 | [5] 0.012 | [6] 0.029 | [7] 0.003 | [8] -0.013 | vemurafenib -0.016 | [9] 0.01 | barasertib -0.018 | [10] 0.026 | volasertib 0.01 | [11] -0.015 | [12] 0.034 | [13] -0.003 | saracatinib 0.002 | sotrastaurin -0.02

VARS (UniProt P26640)
inactive: ibrutinib 0.015 | [1] -0.003 | ralimetinib 0.042 | [2] 0.018 | [3] 0.032 | [4] 0.006 | [5] -0.047 | [6] 0.001 | [7] 0.041 | [8] 0.035 | vemurafenib 0.028 | [9] 0.007 | barasertib 0.036 | [10] -0.077 | volasertib -0.082 | [11] 0.04 | [12] -0.014 | [13] -0.039 | saracatinib -0.001 | sotrastaurin 0.03

4 neighbouring entries already listed, for reference:
VIM (UniProt P08670)
inactive: ibrutinib 0.006 | [1] 0.004 | ralimetinib 0.004 | [2] 0.005 | [3] -0.003 | [4] -0.007 | [5] 0.032 | [6] -0.02 | [7] -0.007 | [8] -0.012 | vemurafenib -0.019 | [9] -0.009 | barasertib 0.032 | [10] -0.044 | volasertib 0.006 | [11] 0.021 | [12] 0.025 | [13] -0.032 | saracatinib 0.01 | sotrastaurin 0.008

UFM1 (UniProt P61960)
inactive: ibrutinib 0.059 | [1] 0.072 | ralimetinib 0.008 | [2] -0.014 | [3] -0.003 | [4] -0.04 | [5] -0.007 | [6] -0.097 | [7] -0.038 | [8] 0.109 | vemurafenib -0.249 | [9] -0.035 | barasertib 0.039 | [10] 0.044 | volasertib 0.047 | [11] 0.014 | [12] 0.491 | [13] -0.338 | saracatinib 0.016 | sotrastaurin 0.028

UQCRC2 (UniProt P22695)
inactive: ibrutinib -0.022 | [1] 0.001 | ralimetinib 0.005 | [2] -0.04 | [3] -0.005 | [4] -0.001 | [5] 0.012 | [6] 0.029 | [7] 0.003 | [8] -0.013 | vemurafenib -0.016 | [9] 0.01 | barasertib -0.018 | [10] 0.026 | volasertib 0.01 | [11] -0.015 | [12] 0.034 | [13] -0.003 | saracatinib 0.002 | sotrastaurin -0.02

VARS (UniProt P26640)
inactive: ibrutinib 0.015 | [1] -0.003 | ralimetinib 0.042 | [2] 0.018 | [3] 0.032 | [4] 0.006 | [5] -0.047 | [6] 0.001 | [7] 0.041 | [8] 0.035 | vemurafenib 0.028 | [9] 0.007 | barasertib 0.036 | [10] -0.077 | volasertib -0.082 | [11] 0.04 | [12] -0.014 | [13] -0.039 | saracatinib -0.001 | sotrastaurin 0.03

Next entries.

UFC1 (UniProt Q9Y3C8)
inactive: ibrutinib 0.05 | [1] -0.019 | ralimetinib -0.021 | [2] 0.01 | [3] -0.014 | [4] -0.021 | [5] -0.019 | [6] -0.002 | [7] 0.012 | [8] -0.003 | vemurafenib 0.015 | [9] -0.007 | barasertib 0.051 | [10] 0.033 | volasertib 0.015 | [11] 0.02 | [12] 0.094 | [13] -0.021 | saracatinib -0.016 | sotrastaurin -0.002
